Results of single-concentration screens

By UniProt entry, the sequences of proteins in these tests, tags left out.
UniProt P9WFT3, whole entry: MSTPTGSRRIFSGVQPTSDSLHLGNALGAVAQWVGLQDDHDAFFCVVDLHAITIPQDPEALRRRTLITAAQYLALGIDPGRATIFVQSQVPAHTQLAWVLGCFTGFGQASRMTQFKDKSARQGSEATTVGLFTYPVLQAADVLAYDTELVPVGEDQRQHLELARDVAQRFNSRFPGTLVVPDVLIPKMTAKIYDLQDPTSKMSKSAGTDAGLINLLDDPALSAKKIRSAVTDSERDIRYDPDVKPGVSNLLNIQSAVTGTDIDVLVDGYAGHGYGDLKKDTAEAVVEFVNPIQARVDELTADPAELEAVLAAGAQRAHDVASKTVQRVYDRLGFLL
UniProt P9WNZ1, whole entry: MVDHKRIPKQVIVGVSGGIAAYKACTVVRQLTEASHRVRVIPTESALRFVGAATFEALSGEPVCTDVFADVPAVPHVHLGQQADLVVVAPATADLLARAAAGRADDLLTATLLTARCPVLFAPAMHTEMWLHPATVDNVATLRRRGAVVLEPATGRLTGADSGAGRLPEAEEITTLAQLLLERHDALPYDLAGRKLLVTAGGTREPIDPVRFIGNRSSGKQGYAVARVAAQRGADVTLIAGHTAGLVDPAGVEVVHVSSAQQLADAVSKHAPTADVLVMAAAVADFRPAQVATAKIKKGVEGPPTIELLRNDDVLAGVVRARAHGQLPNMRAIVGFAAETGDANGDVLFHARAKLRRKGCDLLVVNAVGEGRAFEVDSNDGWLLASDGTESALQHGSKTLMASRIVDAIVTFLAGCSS
UniProt P9WPC5, whole entry: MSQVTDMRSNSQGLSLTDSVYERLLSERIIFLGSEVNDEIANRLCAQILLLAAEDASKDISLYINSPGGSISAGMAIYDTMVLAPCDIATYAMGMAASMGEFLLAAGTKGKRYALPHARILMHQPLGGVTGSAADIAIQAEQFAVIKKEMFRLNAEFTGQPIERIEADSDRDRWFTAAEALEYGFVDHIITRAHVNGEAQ
UniProt P9WPC3, whole entry partner: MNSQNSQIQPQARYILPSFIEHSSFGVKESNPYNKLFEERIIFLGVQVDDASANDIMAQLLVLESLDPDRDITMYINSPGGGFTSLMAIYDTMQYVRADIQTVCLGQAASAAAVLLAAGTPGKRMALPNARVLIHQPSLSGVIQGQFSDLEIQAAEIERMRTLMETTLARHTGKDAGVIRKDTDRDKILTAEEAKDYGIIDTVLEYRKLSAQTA

A: 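Enzyme assay of tryptophanyl-tRNA synthetase; the read-out is not stated. Target: Tryptophan-tRNA ligase, Mycobacterium tuberculosis (UniProt P9WFT3). Compounds at 10 µM. Higher most likely means stronger inhibition; the record gives no direction and few retests gave an IC50. Of about 65,000 compounds tested this way, about 64 (0.098%) reached 50% or more in at least one test.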
B: 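Enzyme assay of CoaBC with a phosphate dye (Biomol Green) read at 650 nm. Target: Coenzyme A biosynthesis protein CoaBC, Mycobacterium tuberculosis (UniProt P9WNZ1). Compounds at 30 µM. Higher reads as stronger inhibition, judged from the few compounds that gave an IC50. Most strong results did not repeat in a second test. Of about 67,000 compounds tested this way, about 40 (0.06%) reached 50% or more in at least one test.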
C: 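Protease assay of ClpP1P2, read by the AMC dye that it sets free. Target: ClpP1P2, Mycobacterium tuberculosis (UniProt P9WPC5 and UniProt P9WPC3). Concentration: 50 µM. Higher reads as stronger inhibition, judged from the few compounds that gave an IC50. Most other retested compounds had strongly negative values. Of about 69,000 compounds tested this way, about 10 (0.015%) reached 50% or more in at least one test.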

Values are the deposited “Percent Effect”, in %. The record does not define 0% and 100%; most values in the screen are far below 50% and negative numbers occur (in some assays of this library far below -100). Compounds were drawn at random from those tested, without regard to their results. A dash means the value is not listed here; it may have been measured.

| SMILES | A | B | C |
|---|---|---|---|
| `COCc1cnc2n1CCN(C(=O)c1cnc3ccccc3c1)C2C` (configuration not stated) | -3.352 | 3.202 | -4.734 |
| `Cc1nc(-c2nnc[nH]2)sc1C(=O)N(Cc1cccnc1)C1CC1` | -3.192 | 1.554 | 6.967 |
| `CCOc1ccc(Cl)cc1C1CCCCN1` (configuration not stated) | 3.204 | 2.785 | -20.44 |
| `COc1ccc(N2CCN(C(=O)[C@H]3[C@@H]4CNC[C@@H]43)CC2(C)C)cc1` | 5.957 | -9.221 | -7.821 |
| `Cc1cc(CN(C)Cc2cnc3c(c2)c(C)nn3C)no1` | 9.345 | 3.043 | -11.49 |
| `CCN1CCN(C[C@@H]2CN(c3ncccc3F)C[C@@H]2CO)CC1` | -2.973 | -2.981 | 9.264 |
| `CNC(=O)c1cccc(CNC(C)c2ccc(F)cc2N(C)C)c1` (configuration not stated) | 0.2141 | 10.68 | -10.09 |
| `O=C1CC(c2ccc(O)cc2)c2c(n3ccsc3nc2=O)N1` (configuration not stated) | 2.591 | 3.788 | -8.522 |
| `Cn1ccnc1CN1CCN(CC(O)c2ccc(F)c(F)c2)CC1` (configuration not stated) | -1.679 | -1.928 | -5.314 |
| `CC(C)c1nnc2n1CCN(C(=O)c1ccc(Cn3cccc3)cc1)C2` | 1.383 | 12.31 | -10.01 |
| `O=C1CCC(C(=O)N2CCOC(Cc3cccc4ccccc34)C2)=NN1` (configuration not stated) | -1.358 | 1.22 | 4.474 |
| `CCN(CC)C(=O)CSc1nc2cc(C)nc-2c(O)n1CC` | 3.31 | 2.806 | -25.44 |
| `Cc1nc(C)n(CC2CCCN2Cc2nc(-c3ccoc3)no2)n1` (configuration not stated) | -8.977 | 9.506 | -36.08 |
| `O=C(O)c1ccccc1-c1ccc(CN2CCCC(O)C2)cc1` (configuration not stated) | - | 1.084 | 9.06 |
| `Cc1nc(C)n(CC2CCCN2Cc2nc(-c3ccccn3)no2)n1` (configuration not stated) | -3.829 | 7.731 | -10.01 |
| `Cn1cnnc1C1CCCN(C(=O)NCCOc2ccccc2)C1` (configuration not stated) | 1.798 | 1.538 | 14.05 |
| `Nc1cc(-c2cccc3ccnn23)ccn1` | -3.333 | 0 | -14.25 |
| `Cc1cc(C)n(C2CN(CC(O)c3cc(F)ccc3F)C2)n1` (configuration not stated) | 3.634 | 0.6818 | -16.25 |
| `CS(=O)(=O)N1CCC[C@H]1c1ncnn1-c1ccc2c(c1)OCO2` | 0.149 | -7.09 | 7.667 |
| `c1cnc2c(C3CCN(Cc4ccsc4)CC3)n[nH]c2n1` | 2.258 | -5 | 4.796 |
| `CCCn1[nH]c(CNc2ccccc2)nc1=O` | 4.068 | 1.392 | -1.892 |
| `O=C(c1ccc(S(=O)(=O)NCc2ccon2)cc1)N1CCOCC1` | -2.441 | -2.512 | 12.09 |
| `CC(=O)NC1CCN(C(=O)Nc2cccc(SC(F)F)c2)CC1` | 0.7991 | -4.567 | -4.493 |
| `Cc1ccc(C(C)NCCc2nccn2Cc2ccccc2)o1` (configuration not stated) | -3.431 | -0.3968 | -9.863 |
| `CC(C)NC(=O)C1c2c(ncn2C(C)C)CCN1Cc1ccccc1` (configuration not stated) | -0.8137 | 5.863 | -20.27 |
| `Cc1occc1C(=O)N1C[C@@H]2OCCN(CCN3CCCC3)[C@@H]2C1` | 3.127 | 0.75 | -6.872 |
| `O=S(=O)(NCc1cc2n(n1)CCNC2)c1ccc(OC(F)(F)F)cc1` | -0.5228 | -0.9828 | -1.697 |
| `COCc1cnc2n1CCN(C1CCC1)C2C` (configuration not stated) | -6.227 | -14.52 | -12.34 |
| `Cn1c(N2CCOCC2)nc2cc(C(=O)N3CCC(O)(CO)C3)ccc21` (configuration not stated) | 2.164 | 0.7653 | -23.6 |
| `COCCN(C)c1ccc(NCc2ccsc2)nc1` | 10.42 | - | -12.24 |
| `O=C(c1ccco1)N1CCCC2(CCN(CCN3CCCC3)C2=O)C1` (configuration not stated) | -3.133 | -6.036 | -5.006 |
| `Cc1cnn(CC2CN(CC(=O)N(C)Cc3ccsc3)CCO2)c1` (configuration not stated) | 6.758 | -11.53 | -15.34 |
| `Cn1ccc(CN2CCOCC23CCNCC3)n1` | -6.276 | 0.4167 | -1.839 |
| `CC(C)c1nn(C)c(N2CCOCC2)c1CNC(C)c1ccco1` (configuration not stated) | -0.8839 | 0.1304 | -11.22 |
| `CCS(=O)(=O)N1CCC2(CN(c3cccc(C)n3)C2)C1` | -6.276 | -2.5 | 3.433 |

Once more, the final 2:

| SMILES | A | B | C |
|---|---|---|---|
| `CC(C)c1nn(C)c(N2CCOCC2)c1CNC(C)c1ccco1` (configuration not stated) | -0.8839 | 0.1304 | -11.22 |
| `CCS(=O)(=O)N1CCC2(CN(c3cccc(C)n3)C2)C1` | -6.276 | -2.5 | 3.433 |

The values are deposited in ChEMBL (CHEMBL3988442, “University of Dundee, Small-Polar-MMV Screening Library” (2021)).